In patent US11339448B2, “Treatment of acute myeloid leukemia” (Ottawa Hospital Research Institute, priority 2018, dated 2022):
Some of these results come from one statement about several compounds together.

Experiments:
Lin−CD34+ HSPCs = assay: Cell viability / apoptosis assay (Annexin V/7-AAD) in shRNA-transduced HSPCs; format: cell-based, human; settings: 48 hours after treatment (Daunorubicin 0.5 μM or Cytarabine 1 μM)
Experimental: HSPCs (Lin^−CD34^+) were maintained in IMDM media containing bovine serum albumin, insulin, and transferrin (Stem Cell Technologies), 1% PenStrep (ThermoFisher), SCF (100 ng/mL), TPO (50 ng/mL), FLT3 (100 ng/mL), 1% Glutamax (InVitrogen), and LDL (1 μg/ml) (Calbiochem). Growth factors were purchased from Peprotech. On Day 1 of infection, cells were incubated with polybrene (Sigma) (6 mg/ml) for 2 hours at 37° C., then combined with viral supernatants containing either a GFP-tagged MTF2 shRNA clone or a scrambled shRNA control (ThermoFisher) at a MOI of 100. Cells were centrifuged at 400 g for 20 minutes, then maintained at 37° C. On Day 2, the infection was repeated. Cells were grown for 3 days using a fed-batch culture system^21, then sorted for high GFP-expression and viability by negative selection of Propidium Iodide using the Beckman Coulter MoFlo sorter.
Apoptosis was assessed in sorted cells by the dual staining of AnnexinV and 7-AAD (eBiosciences). Flow cytometric analyses of treated samples were performed consistently, using the same gating strategy throughout. Viable cells were categorized as being AnnexinV and 7-AAD negative, late apoptotic/dead cells were categorized as being AnnexinV and 7-AAD positive. […]

[1] = tested on: MTF2-deficient refractory AML (MD-AML) patient-derived xenograft (PDX) cells; assay: AML patient-derived xenograft (PDX) NSG mouse treatment study; format: in vivo; settings: PDX mice

Compound	scramble shRNA control cells survived (Lin−CD34+ HSPCs)	time to moribund sacrifice post-treatment [1]
COc1cccc2c1C(=O)c1c(O)c3c(c(O)c1C2=O)C[C@@](O)(C(C)=O)C[C@@H]3O[C@H]1C[C@H](N)[C@H](O)[C@H](C)O1 [Daunorubicin]	less than 6%	–
COc1ccc(C2=N[C@@H](c3ccc(Cl)cc3)[C@@H](c3ccc(Cl)cc3)N2C(=O)N2CCNC(=O)C2)c(OC(C)C)c1 [Nutlin3A, 4-[(4S,5R)-4,5-bis(4-chlorophenyl)-2-(4-methoxy-2-propan-2-yloxyphenyl)-4,5-dihydroimidazole-1-carbonyl]piperazin-2-one]	–	< 6 weeks
